According to PubChem BioAssay AID2685 (National Center for Advancing Translational Sciences (NCATS), 2010):
The list shows a part of the results. The main result of the screen is listed elsewhere. These columns were measured beside it and carry no call. Most of these compounds were active or inconclusive in the main read-out, so they are no random draw. Potencies come from curve fits of mixed quality, noted in brackets.

Experiment: qHTS Assay for Lipid Storage Modulators in Drosophila S3 Cells;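 as to cell number change: cells counted by Cell Tracker Red CMTPX staining in the red channel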
Details: BODIPY lipid droplet fluorescence, 18-24 h; for cell number change: measured here: cell count max response, cells fed with added oleic acid
How it was run: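 Laser-scanning cytometry quantifies lipid droplet accumulation (500–530 nm total intensity; droplet/cell object ratio) in oleic acid-fed (400 uM added) Drosophila S3 cells treated with a concentration series. 20 uM Triacsin C defined 100% inhibition.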

[1] = measured here: lipid fluorescence (Fed channel) AC50, cells fed with added oleic acid
[2] = measured here: cell number channel AC50, cells fed with added oleic acid

Structure (SMILES)	cell number change	AC50 [1]	AC50 [2]
Cc1cccc(C)c1NC(=O)CN(C)C(=O)CCC(=O)c1ccccc1	19.1%	0.146 µM [rising, full curve, poor fit]	
Clc1ccccc1CSc1ncn(-c2ccccc2)n1	-30.4%	29.1 µM [falling, single point]	13 µM [falling, partial curve]
CN(Cc1ccccc1F)C(=O)CN1c2cccc3cccc(c23)S1(=O)=O	9.01%		0.0731 µM [falling, full curve, poor fit]
CC(C)(C)NC(=S)NCc1ccncc1	-9.2%	3.26 µM [falling, full curve, poor fit]	
Cc1cnc(NC(=O)c2sc3ccccc3c2Cl)s1	23.4%	2.59 µM [rising, partial curve]	
O=C(Nc1cccnc1Cl)c1cc(-c2ccco2)on1	-17%	0.517 µM [falling, full curve]	0.058 µM [falling, full curve, poor fit]
CCN(CC(=O)Nc1ccccc1C(F)(F)F)C(=O)CCc1nc2sc3c(c2c(=O)[nH]1)CCCC3	4.8%	5.8 µM [falling, single point]	
O=C(CCCn1c(=O)oc2ccccc21)Nc1ccccc1	12%		
CCCNC(=O)C(Cc1ccc(F)cc1)NC(=O)c1ccc(C#N)cc1 (centres undefined)	9.7%	2.91 µM [falling, single point]	6.51 µM [falling, single point]
CCCNC(=S)NC1CCCC1	24.5%	1.64 µM [falling, partial curve, poor fit]	
O=C(COc1ccc(Cl)cc1Cl)NCCCCc1ccccc1	-41.6%	29.1 µM [falling, single point]	20.6 µM [falling, single point]
Cc1ccc(-n2nc3c(=O)n(C(C)C(=O)NCc4ccccc4Cl)nc(C)c3c2C)cc1 (centres undefined)	-19.1%	29.1 µM [falling, single point]	
COc1ccc(CCNC(=O)c2ccccc2NS(=O)(=O)c2cc(C(=O)O)ccc2OC)cc1	1.32%		1.16 µM [falling, full curve, poor fit]
COc1cc(CN2CCCCC2)ccc1OCc1ccccc1	7.41%	0.13 µM [falling, full curve, poor fit]	
Cc1ccc(-n2cccn2)c(CN2CCC(CO)(CCc3ccccc3)CC2)c1	0.176%		
Oc1ccccc1C1OCC2(CO1)COC(c1ccccc1O)OC2 (centres undefined)	-27.2%	6.51 µM [rising, partial curve]	2.06 µM [rising, partial curve, poor fit]
Cc1cccn2c(=O)c(/C=C(\C#N)S(=O)(=O)c3ccc(Cl)cc3)c(N3CCC(C(N)=O)CC3)nc12	3.23%		
CN(C)/C=C(\C#N)S(=O)(=O)c1ccccc1	-22.9%	6.31 µM [falling, single point]	
O=C(C1CCN(S(=O)(=O)N2CCC3(CC2)OCCO3)CC1)N1CCc2ccccc2C1	143%	6.51 µM [falling, single point]	6.51 µM [falling, single point]
CC1c2ccsc2CCN1S(=O)(=O)c1ccccc1 (centres undefined)		1.84 µM [falling, partial curve]	
Cn1nc(C(=O)NCC(=O)Nc2ccc(F)c(F)c2F)c2ccccc2c1=O	36.8%	25.9 µM [rising, single point]	29.1 µM [rising, single point]
O=Cc1ccc(OCc2ccc3c(c2)OCO3)cc1	19.9%	18.4 µM [rising, single point]	
Cc1ccc(NC(=O)CN(C)C(=O)c2ccc3[nH]c4c(c3c2)CC(C)CC4)cc1 (centres undefined)	18.5%	0.092 µM [rising, full curve, poor fit]	
Cc1ccc2c(c1)N(CC(=O)N1CCCC1)C(=O)c1cccnc1O2	5.61%	10.3 µM [falling, partial curve]	
CCOC(=O)C1=C(COC(=O)c2ccccc2OC)NC(=O)NC1C (centres undefined)		0.0058 µM [rising, full curve, poor fit]	
C[C@@H](C(=O)NCc1ccc(S(C)(=O)=O)cc1)[C@H]1C[C@]1(C)[C@H](NC(=O)OCc1ccccc1)c1ccccc1		2.91 µM [rising, partial curve]	
CO/N=C(/C)CCS(=O)(=O)c1ccccc1	-7.17%		
C=CCn1c(SCC(N)=O)nc2nc3c(cc2c1=O)COC(C)(C)C3	-0.351%		6.51 µM [rising, single point]
COC(=O)/C=c1\sc2ncnn2c1=O	-46.2%	4.61 µM [falling, full curve]	0.58 µM [falling, full curve]

One compound at a time, as listed above. Values in the order: cell number change | AC50 [1] | AC50 [2]
Cn1nc(C(=O)NCC(=O)Nc2ccc(F)c(F)c2F)c2ccccc2c1=O in the list: 36.8% | 25.9 µM [rising, single point] | 29.1 µM [rising, single point]
O=C(Nc1cccnc1Cl)c1cc(-c2ccco2)on1 in the list: -17% | 0.517 µM [falling, full curve] | 0.058 µM [falling, full curve, poor fit]
